Reference: paper PMC4258940
No constants are given. Whether binding was seen depends on the method and setting. For some assays here: Binding seen in cells or lysates may run through a third protein. Some entries that bind do so weakly or less than the wild type.

Amino acid sequences for entries named in this document (tags omitted).
UniProt Q01094: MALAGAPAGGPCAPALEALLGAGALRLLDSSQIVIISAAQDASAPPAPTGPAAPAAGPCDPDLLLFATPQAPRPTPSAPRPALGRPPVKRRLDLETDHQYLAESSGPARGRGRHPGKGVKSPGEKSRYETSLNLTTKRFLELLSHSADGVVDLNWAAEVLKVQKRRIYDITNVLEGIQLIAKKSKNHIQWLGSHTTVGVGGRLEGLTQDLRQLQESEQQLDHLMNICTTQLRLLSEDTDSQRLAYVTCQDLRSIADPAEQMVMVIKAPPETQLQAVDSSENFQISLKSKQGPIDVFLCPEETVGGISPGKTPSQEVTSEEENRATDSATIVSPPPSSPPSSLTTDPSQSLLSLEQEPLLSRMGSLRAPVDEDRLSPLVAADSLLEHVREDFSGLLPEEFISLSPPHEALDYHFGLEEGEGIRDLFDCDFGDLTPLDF
UniProt P33527: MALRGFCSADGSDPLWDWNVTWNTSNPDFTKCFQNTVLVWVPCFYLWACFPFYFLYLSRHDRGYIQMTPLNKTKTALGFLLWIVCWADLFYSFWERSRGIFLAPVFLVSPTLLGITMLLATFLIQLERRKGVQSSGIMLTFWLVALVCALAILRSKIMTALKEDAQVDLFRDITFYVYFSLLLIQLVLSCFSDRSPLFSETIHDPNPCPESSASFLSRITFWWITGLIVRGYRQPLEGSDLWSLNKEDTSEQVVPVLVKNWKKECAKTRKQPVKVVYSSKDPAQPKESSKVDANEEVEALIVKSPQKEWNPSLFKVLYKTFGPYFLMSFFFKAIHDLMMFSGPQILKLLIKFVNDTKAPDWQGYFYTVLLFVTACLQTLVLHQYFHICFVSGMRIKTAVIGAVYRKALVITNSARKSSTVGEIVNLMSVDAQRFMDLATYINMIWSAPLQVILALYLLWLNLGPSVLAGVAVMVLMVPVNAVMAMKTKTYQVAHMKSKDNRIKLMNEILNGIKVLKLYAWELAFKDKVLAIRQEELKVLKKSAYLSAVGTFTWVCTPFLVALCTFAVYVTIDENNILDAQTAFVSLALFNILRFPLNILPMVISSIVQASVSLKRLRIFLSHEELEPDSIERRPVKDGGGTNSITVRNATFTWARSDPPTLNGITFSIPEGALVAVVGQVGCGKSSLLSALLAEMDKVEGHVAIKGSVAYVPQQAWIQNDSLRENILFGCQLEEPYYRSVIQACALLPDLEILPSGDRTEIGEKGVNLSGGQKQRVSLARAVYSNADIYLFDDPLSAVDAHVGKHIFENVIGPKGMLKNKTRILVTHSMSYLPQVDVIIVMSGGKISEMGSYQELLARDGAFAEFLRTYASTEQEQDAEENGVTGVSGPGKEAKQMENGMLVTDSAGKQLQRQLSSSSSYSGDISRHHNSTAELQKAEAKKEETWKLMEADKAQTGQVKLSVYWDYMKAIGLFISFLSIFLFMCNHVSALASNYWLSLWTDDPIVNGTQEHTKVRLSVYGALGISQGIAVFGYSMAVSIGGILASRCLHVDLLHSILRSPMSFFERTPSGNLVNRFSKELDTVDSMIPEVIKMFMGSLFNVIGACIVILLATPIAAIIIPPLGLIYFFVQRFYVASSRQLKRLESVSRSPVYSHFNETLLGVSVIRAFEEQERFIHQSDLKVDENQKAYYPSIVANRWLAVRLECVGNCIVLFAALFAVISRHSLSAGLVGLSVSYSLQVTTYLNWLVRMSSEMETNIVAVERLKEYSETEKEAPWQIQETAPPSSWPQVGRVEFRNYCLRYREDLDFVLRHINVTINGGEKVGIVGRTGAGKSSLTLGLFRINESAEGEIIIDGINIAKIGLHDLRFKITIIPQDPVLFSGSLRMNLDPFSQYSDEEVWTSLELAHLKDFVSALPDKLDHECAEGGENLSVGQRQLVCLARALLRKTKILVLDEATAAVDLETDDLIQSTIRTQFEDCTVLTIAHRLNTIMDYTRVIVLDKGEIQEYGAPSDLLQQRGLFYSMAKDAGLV

Key:
GST-E2F1 = GST-E2F1 (UniProt Q01094); assay: pull-down; in vitro GST pull-down using purified proteins: His-MRP with GST-E2F1 or GST; both purified
[1] = molecular target: E2F1 in lysate of SGC7901/DDP gastric carcinoma cells (human (endogenous in SGC7901/DDP)) (UniProt Q01094); assay: co-IP; reciprocal immunoprecipitation and western blot in lysates of SGC7901/DDP cells stably expressing E2F1; lysis buffer 100 mmol/L NaCl, 10 mmol/L Tris-HCl pH 7.6, 1 mmol/L EDTA, 1% NP-40

binding (GST-E2F1)	binding [1]	Substance
binds	–	6xHis-tagged MRP (from UniProt P33527 1-1531)
–	binds	MRP, endogenous in SGC7901/DDP gastric carcinoma cells (from UniProt P33527 1-1531)
